Results taken from the supplement of paper PMC8728848.
Some of the results follow.

How the values were obtained:
Assay in all cases: glycan array binding signal (z-score within array); higher = stronger binding
Details in all cases: glycan notation: IUPAC condensed, linker removed
[1] = target: Neu5Ac(a2-6)Gal(b1-4)GlcNAc(b1-2)Man(a1-3)[GlcNAc(b1-4)][Neu5Ac(a2-6)Gal(b1-4)GlcNAc(b1-2)Man(a1-6)]Man(b1-4)GlcNAc(b1-4)GlcNAc
In short: (§1)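 Arrays were curated from the Consortium for Functional Glycomics database, 3228 in total, and kept only where the protein sequence was available. Binding is expressed as a within-array Z-score. This score was averaged across arrays of the same protein sequence at different concentrations or buffers and across linkers, and negative values can be read as non-binding.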

[2] = target: Neu5Ac(a2-6)Gal(b1-4)GlcNAc(b1-2)Man(a1-3)[Man(a1-6)]Man(b1-4)GlcNAc(b1-4)GlcNAc
In short: as §1

[3] = target: Neu5Ac(a2-6)Gal(b1-4)GlcNAc(b1-2)Man(a1-3)[Neu5Ac(a2-3)Gal(b1-4)GlcNAc(b1-2)Man(a1-6)]Man(b1-4)GlcNAc(b1-4)GlcNAc
In short: as §1

[4] = target: Neu5Ac(a2-6)Gal(b1-4)GlcNAc(b1-2)Man(a1-3)[Neu5Ac(a2-6)Gal(b1-4)GlcNAc(b1-2)Man(a1-6)]Man(b1-4)GlcNAc(b1-4)GlcNAc
In short: as §1

[5] = target: Neu5Ac(a2-6)Gal(b1-4)GlcNAc(b1-2)Man(a1-3)[Neu5Ac(a2-6)Gal(b1-4)GlcNAc(b1-2)Man(a1-6)]Man(b1-4)GlcNAc(b1-4)[Fuc(a1-6)]GlcNAc
In short: as §1

[6] = target: Neu5Ac(a2-6)Gal(b1-4)GlcNAc(b1-2)Man(a1-6)Man(b1-4)GlcNAc(b1-4)GlcNAc
In short: as §1

[7] = target: Neu5Ac(a2-6)Gal(b1-4)GlcNAc(b1-2)Man(a1-6)[Gal(b1-4)GlcNAc(b1-2)Man(a1-3)]Man(b1-4)GlcNAc(b1-4)GlcNAc
In short: as §1

[8] = target: Neu5Ac(a2-6)Gal(b1-4)GlcNAc(b1-2)Man(a1-6)[GlcNAc(b1-2)Man(a1-3)]Man(b1-4)GlcNAc(b1-4)GlcNAc
In short: as §1

[9] = target: Neu5Ac(a2-6)Gal(b1-4)GlcNAc(b1-2)Man(a1-6)[Man(a1-3)]Man(b1-4)GlcNAc(b1-4)GlcNAc
In short: as §1

[10] = target: Neu5Ac(a2-6)Gal(b1-4)GlcNAc(b1-2)[Neu5Ac(a2-6)Gal(b1-4)GlcNAc(b1-4)]Man(a1-3)[GlcNAc(b1-4)][Neu5Ac(a2-6)Gal(b1-4)GlcNAc(b1-2)[Neu5Ac(a2-6)Gal(b1-4)GlcNAc(b1-6)]Man(a1-6)]Man(b1-4)GlcNAc(b1-4)GlcNAc
In short: as §1

[11] = target: Neu5Ac(a2-6)Gal(b1-4)GlcNAc(b1-2)[Neu5Ac(a2-6)Gal(b1-4)GlcNAc(b1-4)]Man(a1-3)[GlcNAc(b1-4)][Neu5Ac(a2-6)Gal(b1-4)GlcNAc(b1-4)Man(a1-6)]Man(b1-4)GlcNAc(b1-4)GlcNAc
In short: as §1

[12] = target: Neu5Ac(a2-6)Gal(b1-4)GlcNAc(b1-2)[Neu5Ac(a2-6)Gal(b1-4)GlcNAc(b1-6)]Man(a1-6)[Neu5Ac(a2-6)Gal(b1-4)GlcNAc(b1-2)Man(a1-3)][GlcNAc(b1-4)]Man(b1-4)GlcNAc(b1-4)GlcNAc
In short: as §1

[13] = target: Neu5Ac(a2-6)Gal(b1-4)GlcNAc(b1-3)Gal(b1-3)GlcNAc
In short: as §1

[14] = target: Neu5Ac(a2-6)Gal(b1-4)GlcNAc(b1-3)Gal(b1-4)GlcNAc
In short: as §1

[15] = target: Neu5Ac(a2-6)Gal(b1-4)GlcNAc(b1-3)Gal(b1-4)GlcNAc(b1-2)Man(a1-3)[Neu5Ac(a2-6)Gal(b1-4)GlcNAc(b1-3)Gal(b1-4)GlcNAc(b1-2)Man(a1-6)]GalNAc
In short: as §1

[16] = target: Neu5Ac(a2-6)Gal(b1-4)GlcNAc(b1-3)Gal(b1-4)GlcNAc(b1-3)Gal(b1-4)GlcNAc
In short: as §1

[17] = target: Neu5Ac(a2-6)Gal(b1-4)GlcNAc(b1-3)Gal(b1-4)GlcNAc(b1-3)Gal(b1-4)GlcNAc(b1-2)Man(a1-3)[Neu5Ac(a2-6)Gal(b1-4)GlcNAc(b1-3)Gal(b1-4)GlcNAc(b1-3)Gal(b1-4)GlcNAc(b1-2)Man(a1-6)]GalNAc
In short: as §1

[18] = target: Neu5Ac(a2-6)Gal(b1-4)GlcNAc(b1-3)Gal(b1-4)GlcNAc(b1-3)GalNAc
In short: as §1

[19] = target: Neu5Ac(a2-6)Gal(b1-4)GlcNAc(b1-3)Gal(b1-4)GlcNAc(b1-3)[Neu5Ac(a2-6)Gal(b1-4)GlcNAc(b1-3)Gal(b1-4)GlcNAc(b1-6)]GalNAc
In short: as §1

[20] = target: Neu5Ac(a2-6)Gal(b1-4)GlcNAc(b1-3)Gal(b1-4)GlcNAc(b1-6)[Gal(b1-3)]GalNAc
In short: as §1

[21] = target: Neu5Ac(a2-6)Gal(b1-4)GlcNAc(b1-3)Gal(b1-4)[Fuc(a1-3)]GlcNAc(b1-3)Gal(b1-4)[Fuc(a1-3)]GlcNAc
In short: as §1

[22] = target: Neu5Ac(a2-6)Gal(b1-4)GlcNAc(b1-3)GalNAc
In short: as §1

[23] = target: Neu5Ac(a2-6)Gal(b1-4)GlcNAc(b1-3)[Neu5Ac(a2-6)Gal(b1-4)GlcNAc(b1-6)]GalNAc
In short: as §1

[24] = target: Neu5Ac(a2-6)Gal(b1-4)GlcNAc(b1-6)GalNAc
In short: as §1

[25] = target: Neu5Ac(a2-6)Gal(b1-4)GlcNAc(b1-6)[Gal(b1-3)GlcNAc(b1-3)]Gal(b1-4)Glc
In short: as §1

[26] = target: Neu5Ac(a2-6)Gal(b1-4)GlcNAc(b1-6)[Gal(b1-3)]GalNAc
In short: as §1

[27] = target: Neu5Ac(a2-6)Gal(b1-4)GlcNAc6S
In short: as §1

Neu5Ac(a2-6)GalNAc = target: Neu5Ac(a2-6)GalNAc
In short: as §1

[28] = target: Neu5Ac(a2-6)GalNAc(b1-4)GlcNAc
In short: as §1

[29] = target: Neu5Ac(a2-6)GalNAc(b1-4)GlcNAc6S
In short: as §1

[30] = target: Neu5Ac(a2-6)GlcNAc(b1-4)GlcNAc
In short: as §1

B1: CBP21 (Serratia marcescens), O83009 (protein)
chain: MNKTSRTLLSLGLLSAAMFGVSQQANAHGYVESPASRAYQCKLQLNTQCGSVQYEPQSVEGLKGFPQAGPADGHIASADKSTFFELDQQTPTRWNKLNLKTGPNSFTWKLTARHSTTSWRYFITKPNWDASQPLTRASFDLTPFCQFNDGGAIPAAQVTHQCNIPADRSGSHVILAVWDIADTANAFYQAIDVNLSK
With B1 the “glycan array binding signal (z-score)” value [1] was -1.14, the “glycan array binding signal (z-score)” value [2] was 0.511 and the “glycan array binding signal (z-score)” value [3] was 0.611. For the same binder, the “glycan array binding signal (z-score)” value [4] was 0.589, the “glycan array binding signal (z-score)” value [5] was 0.745 and the “glycan array binding signal (z-score)” value [6] was -0.844. For the same binder, the “glycan array binding signal (z-score)” value [7] was -1.16, the “glycan array binding signal (z-score)” value [8] was 0.524 and the “glycan array binding signal (z-score)” value [9] was -0.695. For the same binder, the “glycan array binding signal (z-score)” value [10] was 0.048, the “glycan array binding signal (z-score)” value [11] was 0.512 and the “glycan array binding signal (z-score)” value [12] was 0.063. For the same binder, the “glycan array binding signal (z-score)” value [13] was 0.529, the “glycan array binding signal (z-score)” value [14] was -1.01 and the “glycan array binding signal (z-score)” value [15] was 2.96. The “glycan array binding signal (z-score)” value [16] was -0.719, the “glycan array binding signal (z-score)” value [17] was 2.48 and the “glycan array binding signal (z-score)” value [18] was -0.005. The “glycan array binding signal (z-score)” value [19] was -0.966, the “glycan array binding signal (z-score)” value [20] was -0.292 and the “glycan array binding signal (z-score)” value [21] was 0.632. For the same binder, the “glycan array binding signal (z-score)” value [22] was 0.08, the “glycan array binding signal (z-score)” value [23] was 0.171 and the “glycan array binding signal (z-score)” value [24] was 1.77. For the same binder, the “glycan array binding signal (z-score)” value [25] was -0.085, the “glycan array binding signal (z-score)” value [26] was -0.063 and the “glycan array binding signal (z-score)” value [27] was 0.542. For the same binder, the “glycan array binding signal (z-score)” value (Neu5Ac(a2-6)GalNAc) was -0.252, the “glycan array binding signal (z-score)” value [28] was -0.222 and the “glycan array binding signal (z-score)” value [29] was 0.087. The “glycan array binding signal (z-score)” value [30] was -0.211.
